Source: publication PMC5393896
No constants are given. Whether binding was seen depends on the method and setting. In cells and extracts the contact can be indirect. Some entries that bind do so weakly or less than the wild type.

Protein sequences, listed by entry. Tags and fused reporters are not part of them.
UniProt P05453: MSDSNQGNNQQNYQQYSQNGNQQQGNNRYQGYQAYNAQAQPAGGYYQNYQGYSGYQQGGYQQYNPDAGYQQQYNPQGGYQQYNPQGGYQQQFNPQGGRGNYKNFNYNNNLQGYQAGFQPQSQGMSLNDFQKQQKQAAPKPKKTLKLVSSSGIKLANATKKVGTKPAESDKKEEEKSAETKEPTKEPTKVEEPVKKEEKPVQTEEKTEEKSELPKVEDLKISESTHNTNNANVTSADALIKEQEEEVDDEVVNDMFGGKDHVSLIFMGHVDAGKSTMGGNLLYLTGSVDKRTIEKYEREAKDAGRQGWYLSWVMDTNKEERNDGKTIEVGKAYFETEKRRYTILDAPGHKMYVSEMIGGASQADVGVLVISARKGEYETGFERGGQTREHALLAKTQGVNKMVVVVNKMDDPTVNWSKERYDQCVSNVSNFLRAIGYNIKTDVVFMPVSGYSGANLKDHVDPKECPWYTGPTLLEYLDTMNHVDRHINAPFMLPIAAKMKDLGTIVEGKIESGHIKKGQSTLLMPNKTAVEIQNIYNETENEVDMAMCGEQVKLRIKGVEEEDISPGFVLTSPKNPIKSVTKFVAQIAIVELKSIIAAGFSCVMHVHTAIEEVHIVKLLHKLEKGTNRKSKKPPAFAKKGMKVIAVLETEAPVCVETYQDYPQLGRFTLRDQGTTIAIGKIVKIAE

Target: Sup35 translation termination factor tagged at its C-terminus with a tandem affinity purification (TAP) tag (S. cerevisiae) (UniProt P05453)
Test: co-IP; Sup35-TAP immunoprecipitated from wild-type and tsa1 tsa2 mutant extracts; immunoblot with antibodies against Abp1, Arp3, Sap190 and Act1

binding: binds
B1: Abp1 actin nucleation promoting factor (protein, UniProt P15891 1-592)
chain: MALEPIDYTTHSREIDAEYLKIVRGSDPDTTWLIISPNAKKEYEPESTGSSFHDFLQLFDETKVQYGLARVSPPGSDVEKIIIIGWCPDSAPLKTRASFAANFAAVANNLFKGYHVQVTARDEDDLDENELLMKISNAAGARYSIQTSSKQQGKASTPPVKKSFTPSKSPAPVSKKEPVKTPSPAPAAKISSRVNDNNDDDDWNEPELKERDFDQAPLKPNQSSYKPIGKIDLQKVIAEEKAKEDPRLVQKPTAAGSKIDPSSDIANLKNESKLKRDSEFNSFLGTTKPPSMTESSLKNDDDKVIKGFRNEKSPAQLWAERKAKQNSGNAETKAEAPKPEVPEDEPEGEPDVKDLKSKFEGLAASEKEEEEMENKFAPPPKKSEPTIISPKPFSKPQEPVKAEEAEQPKTDYKKIGNPLPGMHIEADNEEEPEENDDDWDDDEDEAAQPPLPSRNVASGAPVQKEEPEQEEIAPSLPSRNSIPAPKQEEAPEQAPEEEIEEEAEEAAPQLPSRSSAAPPPPPRRATPEKKPKENPWATAEYDYDAAEDNELTFVENDKIINIEFVDDDWWLGELEKDGSKGLFPSNYVSLGN
